Results taken from PMC4628070, “Independent Mechanisms Target SMCHD1 to Trimethylated Histone H3 Lysine 9-Modified Chromatin and the Inactive X Chromosome” (Molecular and Cellular Biology, 2015).

Amino acid sequences for entries named in this document (tags omitted).
UniProt Q6P5D8: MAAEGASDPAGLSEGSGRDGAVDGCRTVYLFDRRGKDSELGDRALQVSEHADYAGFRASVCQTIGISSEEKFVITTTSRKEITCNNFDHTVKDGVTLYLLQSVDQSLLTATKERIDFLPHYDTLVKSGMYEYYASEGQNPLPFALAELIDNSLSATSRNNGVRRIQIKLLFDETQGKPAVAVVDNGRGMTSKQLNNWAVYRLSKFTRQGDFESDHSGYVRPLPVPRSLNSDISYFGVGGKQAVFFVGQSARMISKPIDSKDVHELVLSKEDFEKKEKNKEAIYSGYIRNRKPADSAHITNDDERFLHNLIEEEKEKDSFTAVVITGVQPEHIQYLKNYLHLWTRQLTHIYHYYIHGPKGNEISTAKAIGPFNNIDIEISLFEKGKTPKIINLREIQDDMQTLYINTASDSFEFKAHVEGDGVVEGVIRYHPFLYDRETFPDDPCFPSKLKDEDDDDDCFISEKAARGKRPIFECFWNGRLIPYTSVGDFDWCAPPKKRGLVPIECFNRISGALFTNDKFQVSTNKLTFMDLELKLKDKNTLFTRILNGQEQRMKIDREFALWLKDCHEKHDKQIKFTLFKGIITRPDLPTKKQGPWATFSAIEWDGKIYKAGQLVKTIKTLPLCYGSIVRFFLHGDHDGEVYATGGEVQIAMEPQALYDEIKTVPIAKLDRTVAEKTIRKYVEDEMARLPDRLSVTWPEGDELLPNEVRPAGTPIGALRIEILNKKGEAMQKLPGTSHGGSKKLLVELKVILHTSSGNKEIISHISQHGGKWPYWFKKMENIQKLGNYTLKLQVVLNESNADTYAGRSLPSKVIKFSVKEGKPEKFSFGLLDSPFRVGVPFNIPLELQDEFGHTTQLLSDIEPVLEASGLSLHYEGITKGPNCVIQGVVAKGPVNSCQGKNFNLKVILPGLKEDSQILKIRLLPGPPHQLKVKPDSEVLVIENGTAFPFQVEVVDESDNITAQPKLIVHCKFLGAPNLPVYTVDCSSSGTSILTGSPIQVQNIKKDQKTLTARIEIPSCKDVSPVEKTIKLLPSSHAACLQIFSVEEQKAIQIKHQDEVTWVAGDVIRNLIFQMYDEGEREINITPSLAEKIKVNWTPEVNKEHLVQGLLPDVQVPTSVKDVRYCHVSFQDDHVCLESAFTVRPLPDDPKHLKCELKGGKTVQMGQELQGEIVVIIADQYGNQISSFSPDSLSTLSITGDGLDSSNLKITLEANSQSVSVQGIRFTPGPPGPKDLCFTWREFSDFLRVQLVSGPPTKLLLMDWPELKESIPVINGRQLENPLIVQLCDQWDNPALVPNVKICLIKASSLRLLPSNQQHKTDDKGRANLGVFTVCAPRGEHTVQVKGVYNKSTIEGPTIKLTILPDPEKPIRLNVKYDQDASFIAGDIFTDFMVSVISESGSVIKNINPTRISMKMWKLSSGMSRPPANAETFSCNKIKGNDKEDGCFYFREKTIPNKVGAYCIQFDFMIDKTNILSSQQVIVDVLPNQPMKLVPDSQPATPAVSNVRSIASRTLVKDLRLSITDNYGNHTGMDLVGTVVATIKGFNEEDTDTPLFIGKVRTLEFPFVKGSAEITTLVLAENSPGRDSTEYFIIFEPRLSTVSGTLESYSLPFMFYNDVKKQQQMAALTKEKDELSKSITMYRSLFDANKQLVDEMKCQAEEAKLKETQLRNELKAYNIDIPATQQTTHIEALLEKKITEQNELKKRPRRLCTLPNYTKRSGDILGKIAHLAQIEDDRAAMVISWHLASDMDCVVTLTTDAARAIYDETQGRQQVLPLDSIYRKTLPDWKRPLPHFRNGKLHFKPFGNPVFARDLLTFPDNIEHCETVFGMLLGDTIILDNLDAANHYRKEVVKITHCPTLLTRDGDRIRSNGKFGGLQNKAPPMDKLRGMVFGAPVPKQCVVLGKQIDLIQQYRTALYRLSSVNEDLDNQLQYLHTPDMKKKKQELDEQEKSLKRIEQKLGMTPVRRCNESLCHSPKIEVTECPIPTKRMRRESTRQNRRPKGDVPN
UniProt P23198: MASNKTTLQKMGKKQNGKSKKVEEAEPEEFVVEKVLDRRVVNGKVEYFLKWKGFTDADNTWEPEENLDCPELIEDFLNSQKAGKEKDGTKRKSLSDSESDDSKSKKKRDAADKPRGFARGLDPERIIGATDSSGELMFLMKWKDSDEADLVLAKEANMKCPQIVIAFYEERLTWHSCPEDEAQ

Biological target: SMCHD1-FLAG (stably expressed in mouse embryonic stem cells) (mouse) (UniProt Q6P5D8)
Assay: affinity purification with mass spectrometry; SMCHD1-FLAG immunoprecipitated with M2 anti-FLAG antibody from ESC nuclear extracts, copurifying proteins identified by MS/MS; two independent experiments (PGK12.1-derived clone; Smchd1-/- ESC clone G2)

binding	Molecule
binds	HP1γ (Chromobox homolog 3) (from UniProt P23198 1-183)
binds	Ligand-dependent nuclear receptor-interacting factor 1 isoform 1 (protein, UniProt Q8CDD9 1-755) MSNSLQSVILKTAEEKSGSRCISGCMYQVVPTIGSDGKKLLQLLPISKSSGNLIPVVQSPVMSHGLKANTEKPVQVTFQTQISSSSTSASVQLPVFQPANTTKCFFTGAIDTTGKDRVTSVRTGNFTPPVSNIQNHGVKIHKLTRQTFTIPPSTQNDSSHFIFNTPSLLPNVNSSILPSGNHLKIPAHAEVKSVLASSLPPLVQQKILGTATTSTSGTVEASQIPTVVYVHPVNSVKFVVTKKTQTIYPKPVTFNTLQIPPNVATETQLKGGQHPQAAPVNSIFQEYLQPGIPCIIPVKSSNNVATKVLNTFVGRKNLGDNTIDTPLLNTNSSGRTHSVSEPIKDNALIMFNGKVWLNEKGTCGLPSKIDQQNSVSSDIPLKDSSQLVSSSIVTEISREILNSVLVKSKSFQLKTKSLSNSQLASMANLRAEKNEKVERPSFSVTNPHTMNQSTHCLKQSKTVFINPVFPDGFRTGQNAPRKGNLVQNIEKICSSVDAATVTSQQCVFRDQESQTQYEMASIVKKEIQEKGNNKKYSQGSHTNIKASCLKNDAEFKKLFGLTKDLRVCLTRIPDHLSSGKSFNSFNSLMKSSSYKDANIVVKKEEKKQSFSKKRKAETMKMGNTKKIKIENADDTVMSIMNGTDVASSQPLSSILPTSDISQHNIVTSHSTTREDKRTEAEHCSHEKQEKGTLSSSTSFEQSTFLNKNFMEDIFPVTPPELEETIRDEKIRRLKQILREKEAALEELRKKMYQKQ

Results are given in words; binding and its absence hold for the method and conditions named. In cells and extracts the contact can be indirect. A yes stands for co-enrichment or nearness to the bait. Other partners may have been found.
